Data as given in the supplement of paper PMC6078165.

Tested on: MDAMB468
Test: relative JC-1 red fluorescence (viability) vs pre-drug, coculture with fibroblast (fraction); higher = more viable cancer cells
Experimental: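 JC-1 labelled TNBC cells cocultured 1:1 (1,500 cells each) with CellTrace Violet stained primary or stromal fibroblasts in 384-well plates in FluoroBrite medium, treated with one of 42 anticancer drugs at 0.1, 1, 10 or 100 uM. JC-1 red fluorescence (mitochondrial integrity in cancer cells only) was read by plate reader every 8 h for 72 h. Values are normalised to each well's pre-drug value. The stock of one drug was tenfold lower, so its dose labels may be too high.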

O=C(O)C(=O)O.[NH-][C@@H]1CCCC[C@H]1[NH-].[Pt+2] [Oxaliplatin]
relative JC-1 red fluorescence
Conditions	8 h	16 h	24 h	32 h	40 h	48 h	56 h	64 h	72 h
0.1 µM, coculture fibroblast: C12385	0.873	0.879	0.899	0.8854	0.874	0.9168	0.901	0.915	0.93
0.1 µM, coculture fibroblast: H6013	0.8696	0.868	0.842	0.822	0.8161	0.844	0.832	0.84	0.784
0.1 µM, coculture fibroblast: H6019	0.848	0.845	0.85	0.837	0.82	0.844	0.8058	0.7897	0.775
0.1 µM, coculture fibroblast: H6076	0.9123	0.957	0.888	0.886	0.828	0.835	0.81	0.804	0.829
0.1 µM, coculture fibroblast: H6231	0.801	0.913	0.854	0.858	0.808	0.788	0.735	0.708	0.706
0.1 µM, coculture fibroblast: HADF	0.881	0.882	0.844	0.846	0.8184	0.832	0.81	0.83	0.7899
0.1 µM, coculture fibroblast: HCFa	0.8714	0.873	0.821	0.792	0.762	0.772	0.742	0.71	0.659
0.1 µM, coculture fibroblast: HCPF	0.8428	0.921	0.848	0.846	0.7823	0.761	0.71	0.709	0.702
0.1 µM, coculture fibroblast: HHSteC	0.894	0.8663	0.843	0.818	0.796	0.813	0.761	0.75	0.7
0.1 µM, coculture fibroblast: HMF	0.8222	0.9	0.844	0.835	0.782	0.773	0.739	0.73659	0.747
0.1 µM, coculture fibroblast: HPFa	0.909	0.876	0.84	0.776	0.76	0.769	0.713	0.696	0.623
0.1 µM, coculture fibroblast: HUF	0.886	0.84	0.827	0.783	0.762	0.766	0.744	0.752	0.749
0.1 µM, coculture fibroblast: Hs5	0.835	0.9801	0.9505	0.9371	0.8833	0.8716	0.842	0.818	0.848
0.1 µM, coculture fibroblast: Hs27A	0.854	0.869	0.818	0.81	0.793	0.805	0.781	0.766	0.725
0.1 µM, coculture fibroblast: Hs343T	0.871	0.953	0.91	0.889	0.812	0.796	0.763	0.75	0.75
0.1 µM, coculture fibroblast: WS1	0.858	0.815	0.805	0.773	0.749	0.751	0.749	0.75	0.77
1 µM, coculture fibroblast: C12385	0.8879	0.7997	0.7511	0.6845	0.6346	0.6109	0.5698	0.537	0.51641
1 µM, coculture fibroblast: H6013	0.8935	0.836	0.782	0.777	0.742	0.745	0.719	0.704	0.659
1 µM, coculture fibroblast: H6019	0.837	0.797	0.769	0.726	0.701	0.688	0.652	0.629	0.602
1 µM, coculture fibroblast: H6076	0.9572	0.962	0.906	0.917	0.856	0.841	0.802	0.786	0.83
1 µM, coculture fibroblast: H6231	0.855	0.935	0.923	0.885	0.856	0.831	0.775	0.75	0.734
1 µM, coculture fibroblast: HADF	0.882	0.819	0.768	0.748	0.693	0.683	0.641	0.625	0.583
1 µM, coculture fibroblast: HCFa	0.883	0.824	0.774	0.757	0.7	0.699	0.649	0.614	0.5659
1 µM, coculture fibroblast: HCPF	0.88197	0.975	0.871	0.845	0.794	0.762	0.71	0.684	0.667
1 µM, coculture fibroblast: HHSteC	0.9274	0.855	0.81	0.781	0.734	0.718	0.666	0.638	0.584
1 µM, coculture fibroblast: HMF	0.858	0.97476	0.8781	0.844	0.778	0.755	0.699	0.671	0.649
1 µM, coculture fibroblast: HPFa	0.91	0.8329	0.79	0.755	0.7004	0.6951	0.637	0.601	0.539
1 µM, coculture fibroblast: HUF	0.929	0.841	0.787	0.731	0.683	0.666	0.628	0.619	0.606
1 µM, coculture fibroblast: Hs5	0.825	0.949	0.893	0.866	0.8	0.768	0.727	0.688	0.707
1 µM, coculture fibroblast: Hs27A	0.8448	0.77	0.722	0.713	0.642	0.634	0.59	0.55896	0.5248
1 µM, coculture fibroblast: Hs343T	0.881	0.912	0.863	0.839	0.79	0.772	0.713	0.7	0.686
1 µM, coculture fibroblast: WS1	0.887	0.795	0.748	0.688	0.65	0.607	0.587	0.558	0.553

Values are relative to the signal before dosing, not to a vehicle control; the signal also falls without drug.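 Labels refer to human fibroblasts, largely primary: uterine (C12385, HUF), lung (H6013), bone (Hs27A), adrenal (HADF), skin (WS1), plus mammary HMF and breast cancer-associated Hs343T. Cancer lines are basal-like or mesenchymal-like triple-negative breast cancer. The paper counts as hits responses shifting over 3x the replicate standard deviation. The tissue of the other fibroblasts is not given here.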
